This passage reports binding results from publication PMC9367985.

Results are given in words; binding and its absence hold for the method and conditions named. Binding seen in cells or lysates may run through a third protein. Tags and fused reporters may be left off the sequences shown.

The target in the test is A315T^247-414-GFP (C-terminally GFP-tagged truncated TDP-43, residues 247-414, with the ALS-associated A315T mutation) (human) (UniProt Q13148). Kind of test: co-IP; HEK293T cells transfected with LUBAC subunits and GFP or A315T^247-414-GFP; lysis in 50 mM Tris-HCl pH 7.5, 150 mM NaCl, 1% Triton X-100; anti-GFP immunoprecipitates on Protein G agarose at 4 °C; immunoblotting. (In general: A western blot detects proteins with antibodies after separation by electrophoresis.)

B1: SHARPIN expressed alone (FLAG-tagged LUBAC subunit) (protein, UniProt Q9H0F6 1-387)
chain: MAPPAGGAAAAASDLGSAAVLLAVHAAVRPLGAGPDAEAQLRRLQLSADPERPGRFRLELLGAGPGAVNLEWPLESVSYTIRGPTQHELQPPPGGPGTLSLHFLNPQEAQRWAVLVRGATVEGQNGSKSNSPPALGPEACPVSLPSPPEASTLKGPPPEADLPRSPGNLTEREELAGSLARAIAGGDEKGAAQVAAVLAQHRVALSVQLQEACFPPGPIRLQVTLEDAASAASAASSAHVALQVHPHCTVAALQEQVFSELGFPPAVQRWVIGRCLCVPERSLASYGVRQDGDPAFLYLLSAPREAPATGPSPQHPQKMDGELGRLFPPSLGLPPGPQPAASSLPSPLQPSWSCPSCTFINAPDRPGCEMCSTQRPCTWDPLAAAST
On to B1, for which the binding entry is listed as “no binding”.
